At least one read-out could not be matched to a standard name with certainty.
Test: Nebulization recovery (Example 15)
Format: physicochemical
Conditions: 2 mg/ml and 10 mg/ml in ethanol/propylene glycol/water (85:10:5), ProNeb Ultra nebulizer, mass spectrometry

Q: For `CCCCCC/C=C\CCCCCCCC(=O)O` [palmitoleic acid], which recovery after nebulization is on record?
A: recovered from both formulations

— patent publication US20060228384A1, “Control of biofilm with a biofilm inhibitor” (Sequoia Sciences, Inc., priority 2005, published 2006)
